Data source: PubChem BioAssay AID1224830 (NIAID, 2016)
The whole screen tested about 18,000 reagents; this is a part drawn at random. About 2,900 of them (16%) were called active. 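Calls are made per well; low scores hint the gene aids the LPS response, high scores that it dampens it.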 Repeated entries: four replicate wells of each siRNA pool. No sequences are given here.

Assay: 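Regulators of TLR4 signalling towards TNF-alpha in macrophage-like cells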 (primary screen)
Cell system: human THP-1 monocytic leukaemia cells, TNF dual-luciferase reporter clone, PMA-differentiated to macrophage-like cells
Knock-down reagent: siRNA pool against human genes, 50 nM
Duration: LPS for 4 h, given about 3 days after siRNA transfection
Challenge: bacterial LPS (TLR4 ligand), 10 ng/ml
Read-out: 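TNF firefly reporter luminescence divided by renilla, normalised to the plate median, then turned into a robust z-score for each replicate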
Reading the numbers: TNF reporter robust z-score: higher = stronger TNF reporter response to LPS
Rule for the call: 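Each well counts as active if its z-score is over 2.8 or under -1.5; controls are left without a call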

| gene | TNF reporter robust z-score | Outcome |
| --- | --- | --- |
| CAMKMT (GeneID 79823) | – | inactive |
| CNN2 (GeneID 1265) | 0.94 | inactive |
| CNN2 (GeneID 1265) | -0.14 | inactive |
| CNN2 (GeneID 1265) | 0.42 | inactive |
| CNN2 (GeneID 1265) | -0.25 | inactive |
| HROB (GeneID 78995) | -0.5 | inactive |
| HROB (GeneID 78995) | -0.26 | inactive |
| HROB (GeneID 78995) | -0.1 | inactive |
| HROB (GeneID 78995) | 0.08 | inactive |
| IGLL3P (GeneID 91353) | -0.27 | inactive |
| IGLL3P (GeneID 91353) | 0.53 | inactive |
| IGLL3P (GeneID 91353) | -0.71 | inactive |
| IGLL3P (GeneID 91353) | 0.51 | inactive |
| SYT15 (GeneID 83849) | -0.63 | inactive |
| SYT15 (GeneID 83849) | 0.32 | inactive |
| SYT15 (GeneID 83849) | -0.62 | inactive |
| SYT15 (GeneID 83849) | -0.14 | inactive |
| RPS17 (GeneID 6218) | -0.48 | inactive |
| RPS17 (GeneID 6218) | -0.07 | inactive |
| RPS17 (GeneID 6218) | -0.76 | inactive |
| RPS17 (GeneID 6218) | -0.34 | inactive |
| NEK2 (GeneID 4751) | -0.46 | inactive |
| NEK2 (GeneID 4751) | 0.73 | inactive |
| NEK2 (GeneID 4751) | 0.44 | inactive |
| NEK2 (GeneID 4751) | -0.63 | inactive |
| RAB3GAP1 (GeneID 22930) | -0.45 | inactive |
| RAB3GAP1 (GeneID 22930) | -0.2 | inactive |
| RAB3GAP1 (GeneID 22930) | -1.12 | inactive |
| RAB3GAP1 (GeneID 22930) | 0.12 | inactive |
| CCNL2 (GeneID 81669) | -1.98 | active |
| CCNL2 (GeneID 81669) | -1.25 | inactive |
| CCNL2 (GeneID 81669) | -1.68 | active |
| CCNL2 (GeneID 81669) | -1.81 | active |
| GJA8 (GeneID 2703) | -1.43 | inactive |
| GJA8 (GeneID 2703) | -1.11 | inactive |
| GJA8 (GeneID 2703) | -1.32 | inactive |
| GJA8 (GeneID 2703) | -1.34 | inactive |
| DUSP3 (GeneID 1845) | 0.18 | inactive |
| DUSP3 (GeneID 1845) | 1.9 | inactive |
| DUSP3 (GeneID 1845) | 0.88 | inactive |
| DUSP3 (GeneID 1845) | 0.25 | inactive |
| PARD3B (GeneID 117583) | -0.39 | inactive |
| PARD3B (GeneID 117583) | -0.36 | inactive |
| PARD3B (GeneID 117583) | -0.52 | inactive |
| PARD3B (GeneID 117583) | 0.84 | inactive |
| ARL13B (GeneID 200894) | 0.9 | inactive |
| ARL13B (GeneID 200894) | 2.33 | inactive |
| ARL13B (GeneID 200894) | -0.24 | inactive |
| ARL13B (GeneID 200894) | 0.83 | inactive |
| MOGS (GeneID 7841) | 0.44 | inactive |
| MOGS (GeneID 7841) | 1.08 | inactive |
| MOGS (GeneID 7841) | -0.63 | inactive |
| MOGS (GeneID 7841) | -0.16 | inactive |
| POM121L2 (GeneID 94026) | 2.26 | inactive |
| POM121L2 (GeneID 94026) | -0.11 | inactive |
| POM121L2 (GeneID 94026) | -0.18 | inactive |
| POM121L2 (GeneID 94026) | 1.81 | inactive |
| CD276 (GeneID 80381) | -1.64 | active |
| CD276 (GeneID 80381) | -1.25 | inactive |
| CD276 (GeneID 80381) | -1.14 | inactive |
| CD276 (GeneID 80381) | -0.66 | inactive |
| WT1-AS (GeneID 51352) | -0.3 | inactive |
| WT1-AS (GeneID 51352) | 0.45 | inactive |
| WT1-AS (GeneID 51352) | 0.08 | inactive |
| WT1-AS (GeneID 51352) | -0.17 | inactive |
| ITIH2 (GeneID 3698) | -0.56 | inactive |
| ITIH2 (GeneID 3698) | 0.19 | inactive |
| ITIH2 (GeneID 3698) | 0.64 | inactive |
| ITIH2 (GeneID 3698) | 0.54 | inactive |
| SLC46A1 (GeneID 113235) | -0.95 | inactive |
| SLC46A1 (GeneID 113235) | -0.02 | inactive |
| SLC46A1 (GeneID 113235) | -1.14 | inactive |
| SLC46A1 (GeneID 113235) | 1.28 | inactive |
| MLN (GeneID 4295) | 1.27 | inactive |
| MLN (GeneID 4295) | 2.28 | inactive |
| MLN (GeneID 4295) | -0.65 | inactive |
| MLN (GeneID 4295) | -2.04 | active |
| CFAP206 (GeneID 154313) | -0.88 | inactive |
| CFAP206 (GeneID 154313) | -0.48 | inactive |
| CFAP206 (GeneID 154313) | 0.47 | inactive |
| CFAP206 (GeneID 154313) | 0.34 | inactive |
| RAB11FIP5 (GeneID 26056) | -0.58 | inactive |
| RAB11FIP5 (GeneID 26056) | -0.36 | inactive |
| RAB11FIP5 (GeneID 26056) | -1.04 | inactive |
| RAB11FIP5 (GeneID 26056) | -0.75 | inactive |
| GNL3 (GeneID 26354) | -1.12 | inactive |
| GNL3 (GeneID 26354) | -0.37 | inactive |
| GNL3 (GeneID 26354) | 1.37 | inactive |
| GNL3 (GeneID 26354) | -0.29 | inactive |
| KCNE2 (GeneID 9992) | -0.86 | inactive |
| KCNE2 (GeneID 9992) | -1.03 | inactive |
| KCNE2 (GeneID 9992) | -0.46 | inactive |
| KCNE2 (GeneID 9992) | 1.72 | inactive |
| PMS1 (GeneID 5378) | -0.1 | inactive |
| PMS1 (GeneID 5378) | -0.29 | inactive |
| PMS1 (GeneID 5378) | -1.02 | inactive |
| PMS1 (GeneID 5378) | 0.04 | inactive |
| ODAD2 (GeneID 55130) | 4.46 | active |
| ODAD2 (GeneID 55130) | 3.82 | active |
| ODAD2 (GeneID 55130) | -0.12 | inactive |
| ODAD2 (GeneID 55130) | -0.88 | inactive |
| F2RL3 (GeneID 9002) | -0.48 | inactive |
| F2RL3 (GeneID 9002) | -0.71 | inactive |
| F2RL3 (GeneID 9002) | -0.14 | inactive |
| F2RL3 (GeneID 9002) | -0.02 | inactive |
| FUS (GeneID 2521) | 0.05 | inactive |
| FUS (GeneID 2521) | -0.02 | inactive |
| FUS (GeneID 2521) | -0.45 | inactive |
| FUS (GeneID 2521) | 0.51 | inactive |
| IPO7 (GeneID 10527) | -1.01 | inactive |
| IPO7 (GeneID 10527) | 0.42 | inactive |
| IPO7 (GeneID 10527) | -1.31 | inactive |
| IPO7 (GeneID 10527) | -0.17 | inactive |

Active calls (from the list above):
| gene | TNF reporter robust z-score | Outcome |
| --- | --- | --- |
| CCNL2 (GeneID 81669) | -1.98 | active |
| CCNL2 (GeneID 81669) | -1.68 | active |
| CCNL2 (GeneID 81669) | -1.81 | active |
| CD276 (GeneID 80381) | -1.64 | active |
| MLN (GeneID 4295) | -2.04 | active |
| ODAD2 (GeneID 55130) | 4.46 | active |
| ODAD2 (GeneID 55130) | 3.82 | active |
